Experimental data taken from publication PMC7293033.
Results are given in words; binding and its absence hold for the method and conditions named.

Amino acid sequences for entries named in this document (tags omitted).
UniProt Q13838: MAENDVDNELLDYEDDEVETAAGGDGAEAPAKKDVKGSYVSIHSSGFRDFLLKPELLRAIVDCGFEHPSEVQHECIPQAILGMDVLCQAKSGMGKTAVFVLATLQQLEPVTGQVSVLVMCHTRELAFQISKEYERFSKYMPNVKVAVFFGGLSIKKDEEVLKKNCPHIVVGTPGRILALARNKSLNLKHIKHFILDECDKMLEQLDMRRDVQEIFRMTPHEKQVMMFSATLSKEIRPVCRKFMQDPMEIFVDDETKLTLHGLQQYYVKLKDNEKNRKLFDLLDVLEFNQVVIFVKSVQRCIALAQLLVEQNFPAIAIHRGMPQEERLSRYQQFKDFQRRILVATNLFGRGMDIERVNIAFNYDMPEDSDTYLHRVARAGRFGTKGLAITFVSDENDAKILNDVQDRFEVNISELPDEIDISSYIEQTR

Molecular target: GST-UAP56 (human) (UniProt Q13838)
Test: SPR; UAP56 with API5, FGF2, the API5–FGF2 complex or PBK as analyte proteins; purified recombinant proteins; both purified

- binding: no binding
B1: PBK (PDZ-binding kinase) (protein, UniProt Q96KB5 1-322)
chain: MEGISNFKTPSKLSEKKKSVLCSTPTINIPASPFMQKLGFGTGVNVYLMKRSPRGLSHSPWAVKKINPICNDHYRSVYQKRLMDEAKILKSLHHPNIVGYRAFTEANDGSLCLAMEYGGEKSLNDLIEERYKASQDPFPAAIILKVALNMARGLKYLHQEKKLLHGDIKSSNVVIKGDFETIKICDVGVSLPLDENMTVTDPEACYIGTEPWKPKEAVEENGVITDKADIFAFGLTLWEMMTLSIPHINLSNDDDDEDKTFDESDFDDEAYYAALGTRPPINMEELDESYQKVIELFSVCTNEDPKDRPSAAHIVEALETDV
